Test results: patent US7763708B2, “Methods and compositions for modulating C5-a-mediated inflammatory responses” (Institute for Protein Science Co., Ltd., priority 2004, dated 2010)
Entries after “also recorded” stand apart in the source; their conditions may differ. Not every detail of the peptide structures is certain; ends, links or a residue may be inferred. Ends that are not written are not given here.

Experiments:
skin reaction of rats = experiment: Skin reaction of rats: Evans Blue exudation after intradermal 5I2 (anti-Crry mAb); format: in vivo, rat; conditions: 5I2 2.5 μg + peptide 40 μg i.d.; spots measured from reverse side of removed skin
Procedure: Within one exemplary embodiment illustrating construction of useful C5a-modulatory peptide analogs and mimetics from a direct C5a complement peptide (or reference C5a-modulatory peptide sequence), an acetylated derivative of Pep-A (A-Pep-A) was constructed and tested for use within the methods and compositions of the invention. A-Pep-A is a peptide with the same sequence as that of Pep-A with acetylated alanine at the amino-terminal amino acid. Effect of A-Pep-A was tested on the lethal shock of mice induced by intravenous administration of CAWS (Candida albicans water soluble extract). […] ICR mice were injected with 4 mg/kg of A-Pep-A intraperitonally (i.p.) or intravenously (i.v.) 10 min before i.v. challenge with […] 100 μg CAWS. […] Effect of A-Pep-A was also evaluated on the skin reaction of rats. […]

C5a [1] = biological target: T1, C5a (Homo sapiens, UniProt P01031); experiment: Intracellular Ca++ mobilization in neutrophils triggered by C5a (calcium imaging); format: cell-based
T1 sequence (P01031 678-751 limits assumed): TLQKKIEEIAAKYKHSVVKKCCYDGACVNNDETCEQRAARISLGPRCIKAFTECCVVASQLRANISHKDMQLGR
Procedure: Neutrophils were isolated from fresh human blood with 0.2% EDTA as an anticoagulant. Whole blood was collected from a healthy volunteer (a collaborator of this study) via vein puncture. A 2.4 ml aliquot of blood was then layered onto 2 ml Mono-Poly Resolving Medium (Dainihon Seiyaku, Tokyo, Japan) in a centrifuge tube and centrifuged at 400 g for 20 min at room temperature. The polymorphonuclear leukocytes (neutrophils) were then harvested and the cell fraction was washed with Hanks' balanced salt solution (HBSS).
The isolated neutrophils were loaded with 2 μM Fura-2/AM (Molecular Probes, Eugene, Oreg.) mixed with 0.02% Pluronic F-127 (Molecular Probes) and 0.2% DMSO in HBSS for 40 min at 37° C. The suspension was agitated to prevent sedimentation. After loading, the cells were washed with HBSS twice and suspended in HBSS containing 0.3% BSA (HBSS/BSA). Approximately 1×10^6 cells in 900 μl HBSS/BSA were added to a poly-L-lysine-coated 35 mm Petri dish and allowed to attach to the bottom of the dish for 30 min. Changes in intracellular calcium concentrations in response to C5a or a mixture of peptides (C-peptides and C5a) were determined by monitoring the ratio of fluorescence light emission at 5I0 nm as a result of excitation at 340 and 380 nm at 37° C. using an ARGUS HiSCA calcium imaging system (Hamamatsu Photonics, Hamamatsu, Japan). The mixture of peptides and C5a was incubated in an Eppendorf tube on ice for 30 min in the HBSS solution and then applied to the cells after a 2 min baseline recording.
The effect of C-peptides on C5a function was analyzed by measuring Ca^++ mobilization using an ARUGUS HiSCA calcium imaging system. Administration of 0.7 nM recombinant human C5a (RhC5a) induced a transient increase in the level of intracellular Ca^++ of human neutrophils (FIG. 3a). The level of this activation was about 50% of the maximum achieved with higher concentrations of C5a. A mixture of C-peptide and C5a was incubated in an Eppendorf tube on ice for 30 min in the HBSS solution and then applied to the cells. […] A lower concentration of Pep-A (350 nM) still inhibited about 95% of the effect of C5a (FIG. 3c). […] The inhibitory effect of Pep-A disappeared at 0.7 nM (FIG. 3f). […] The results were normalized results using the area-under-curve data of the calcium influx and are described in FIG. 4.

PL37-MAP = PL37-MAP (Homo sapiens, UniProt P01031); experiment: Surface plasmon resonance (Biacore) binding of C-peptides to immobilized PL37-MAP
Procedure: (§1) Binding interactions between PL37 or C5a with C-peptides were evaluated using surface plasmon resonance (SPR) technology with the Biacore system. PL37 and C5a were covalently immobilized on the CM5 sensor chip by amine coupling methods using N-ethyl-N-(dimethylaminopropyl)carbodiimide/N-hydroxysuccinimide (EDC/NHS) according to the manufacturer's instructions. We activated the surface of the CM5 sensor chip with EDC/NHS for 20 min before injection with PL37-MAP (200 μg/ml in 10 mM sodium carbonate buffer, pH 8.5, over flow cell 2) or C5a (100 μg/ml in 10 mM acetate buffer, pH 5, over flow cell 3). Afterwards, excess NHS was deactivated for 20 min with 1 M ethanolamine hydrochloride (EA), pH 8.5. The reference flow cell was activated with EDC/NHS, and blocked with EA. Coupling was performed at a flow rate of 5 μl/min at 25° C. in PBS. Analyte (30 μl of C-peptide A or B) was injected at 10 μl/min at 25° C. in PBS. Binding interactions were determined by passing samples simultaneously over both the EA-blocked cell and the flow cell with immobilized PL37 or C5a so as to obtain units of resonance response (RU) by subtraction of the background using Biacore software (BIA evaluation).
The Biacore instrument which uses SPR technology measures association and dissociation in real time of an unlabeled analyte with an immobilized ligand. […]

[2] = tested on: TGW human neuroblastoma cells bearing C5aR; experiment: Patch clamp measurement of inward ion current pulses induced by PL37-MAP; format: cell-based; conditions: for Inhibition of inward ion current pulse evoked by PL37-MAP: 500 nM PL37-MAP, TGW cells
Procedure: The measurements were carried out on TGW human neuroblastoma cells bearing C5aR. Cells were voltage-clamped at room temperature at a holding potential of −70 mV using a whole cell clamp configuration. The instruments used for electrophysiology were as follows: an Axopatch 200-A patch clamp amplifier, a Digidata-1200 data acquisition system and pCLAMP 6.02 software from Axon Instruments Inc., (Foster City, Calif.). The head stage of the amplifier was fitted to an MHW-3 hydraulic manipulator manufactured by Narishige Inc. (Tokyo, Japan); and the cells were visualized using an Olympus IMT-2 invert microscope. Data acquisition and analysis were performed using an IBM compatible personal computer. Patch electrodes (OD=1.5 mm, thin wall, Garner Glass Co., Claremont, Calif.) were pulled with a PP-83 puller and polished with an MF-83 microforge (Narishige Inc). The resistance of patch electrodes was 8-10 MΩ. The solutions used were as follows: an extracellular solution (10 mM Hepes, 140 mM NaCl, 5 mM KCI, 2 mM CaCl2, 2 mM MgCl2, 10 mM glucose, pH=7.34) and an intracellular pipette solution (10 mM Hepes, 110 mM KCl, 15 mM NaCl, 0.1 mM CaCl2, 2 mM MgCl2, 1 mM EGTA, pH 7.25). Recordings were carried out on several cells (n=10 in each experiment) and were initiated simultaneously with the peptide application.
The PL37-MAP peptide or mixture of peptides (PL37-MAP and C-peptides) were incubated in an Eppendorf tube at room temperature for one hour in the extracellular solution and then applied to the cells via a puff pipette from a distance of 300-500 μm for 2 min.
Inward calcium current pulses detected by a patch clamp assay were evoked when TGW cells were exposed to 500 nM PL37-MAP (FIG. 2a). […] After washing out, 500 nM PL37-MAP alone were added to the same cells without incubation with C-peptide, and the PL37-MAP peptide triggered an ion current pulse (data not shown). […] Inhibition by Pep-A was concentration-dependent, since lower concentrations of the C-peptide blocked the effect of PL37-MAP only partially (FIG. 2d-e).

C5a [3] = biological target: T1, C5a; experiment: Surface plasmon resonance (Biacore) binding of C-peptides to immobilized C5a; set-up: Complement anaphylatoxin C5a is a 74-amino acid peptide generated from the fifth component of complement (C5)
Procedure: as §1
Binding of C-peptides to C5a was also examined. C5a was covalently coupled to a CM5 sensor chip resulting in a net increase of 5,770 RU. […]

[4] = Biacore, PBS, 25° C., 10 μl/min, EA-blocked cell subtracted

ASGAPAPGPAGPLRPMF [Pep-A, ASGAPAPGPAGPLRPMF]
Blue spots at 2 h (skin reaction of rats): 7 +/− 2 | Inhibition of C5a-triggered Ca++ mobilization (C5a [1]; 0.7 nM C5a, 0.7 nM C-peptide, human neutrophils): not detected; also recorded: disappeared | Inhibition of C5a-triggered Ca++ mobilization (C5a [1]; 0.7 nM C5a, 7 nM C-peptide, human neutrophils): partial inhibition | Inhibition of C5a-triggered Ca++ mobilization (C5a [1]; 0.7 nM C5a, 70 nM C-peptide, human neutrophils): partial inhibition | Inhibition of C5a-triggered Ca++ mobilization (C5a [1]; 0.7 nM C5a, 700 nM C-peptide, human neutrophils): blocked the effect of C5a completely; also recorded: almost completely | Inhibition of C5a-triggered Ca++ mobilization (C5a [1]; 1 nM C5a, 350 nM peptide, human neutrophils (FIG. 5)): significantly inhibited | Binding to PL37-MAP-coupled flow cell (PL37-MAP; [4]): bound to PL37-MAP | Dissociation of complex with PL37-MAP (PL37-MAP; no dissociation with increased salt or DMSO): 6 M urea treatment was required to dissociate the complex | Inhibition of inward ion current pulse evoked by PL37-MAP ([2]; 1 μM C-peptide): no inhibition | Inhibition of inward ion current pulse evoked by PL37-MAP ([2]; 10 μM C-peptide): partially inhibited | Inhibition of inward ion current pulse evoked by PL37-MAP ([2]; 50 μM C-peptide): a pulse could not be induced; also recorded: inhibited the pulse almost completely | Ion current on exposure to C-peptide alone ([2]; Pep-A alone, even at the highest concentration used): ion current could not be observed | Dissociation of complex with C5a (C5a [3]): no dissociation of Pep-A bound to C5a was observed without treatment with 6 M urea | Binding to C5a-coupled flow cell (C5a [3]; [4]): bound to C5a
